Some of the results follow.
Key:
Assay in all cases: log2 fold change, soluble protein after heating vs DMSO (PISA); higher = thermal stabilisation; K562 cells, 10 uM, 30 min; active = over 0.2 and 3.5 SD of the protein, either way, in both replicates (recomputed)
erlotinib = compound: C#Cc1cccc(Nc2ncnc3cc(OCCOC)c(OCCOC)cc23)c1 [erlotinib]
Method in brief: (§1)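 Quantification of soluble protein used TMTpro 16plex LC-MS/MS, with channel sums equalised. Samples were the supernatant after 21,000xg for 90 min of pooled aliquots from K562 cells (2×10^6 cells/mL) treated with 10 μM compound for 30 min, heated for 3 min over 48°C-58°C, and extracted in PBS with 0.5% NP-40 at 4°C. Values, from duplicates, describe thermal stability against control samples on a log2 fold-change scale.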

By UniProt entry, the sequences of proteins in these tests, tags left out. Where a name states a change or a piece, a line headed by the entry shows the natural chain unless it says otherwise.
UniProt Q15652: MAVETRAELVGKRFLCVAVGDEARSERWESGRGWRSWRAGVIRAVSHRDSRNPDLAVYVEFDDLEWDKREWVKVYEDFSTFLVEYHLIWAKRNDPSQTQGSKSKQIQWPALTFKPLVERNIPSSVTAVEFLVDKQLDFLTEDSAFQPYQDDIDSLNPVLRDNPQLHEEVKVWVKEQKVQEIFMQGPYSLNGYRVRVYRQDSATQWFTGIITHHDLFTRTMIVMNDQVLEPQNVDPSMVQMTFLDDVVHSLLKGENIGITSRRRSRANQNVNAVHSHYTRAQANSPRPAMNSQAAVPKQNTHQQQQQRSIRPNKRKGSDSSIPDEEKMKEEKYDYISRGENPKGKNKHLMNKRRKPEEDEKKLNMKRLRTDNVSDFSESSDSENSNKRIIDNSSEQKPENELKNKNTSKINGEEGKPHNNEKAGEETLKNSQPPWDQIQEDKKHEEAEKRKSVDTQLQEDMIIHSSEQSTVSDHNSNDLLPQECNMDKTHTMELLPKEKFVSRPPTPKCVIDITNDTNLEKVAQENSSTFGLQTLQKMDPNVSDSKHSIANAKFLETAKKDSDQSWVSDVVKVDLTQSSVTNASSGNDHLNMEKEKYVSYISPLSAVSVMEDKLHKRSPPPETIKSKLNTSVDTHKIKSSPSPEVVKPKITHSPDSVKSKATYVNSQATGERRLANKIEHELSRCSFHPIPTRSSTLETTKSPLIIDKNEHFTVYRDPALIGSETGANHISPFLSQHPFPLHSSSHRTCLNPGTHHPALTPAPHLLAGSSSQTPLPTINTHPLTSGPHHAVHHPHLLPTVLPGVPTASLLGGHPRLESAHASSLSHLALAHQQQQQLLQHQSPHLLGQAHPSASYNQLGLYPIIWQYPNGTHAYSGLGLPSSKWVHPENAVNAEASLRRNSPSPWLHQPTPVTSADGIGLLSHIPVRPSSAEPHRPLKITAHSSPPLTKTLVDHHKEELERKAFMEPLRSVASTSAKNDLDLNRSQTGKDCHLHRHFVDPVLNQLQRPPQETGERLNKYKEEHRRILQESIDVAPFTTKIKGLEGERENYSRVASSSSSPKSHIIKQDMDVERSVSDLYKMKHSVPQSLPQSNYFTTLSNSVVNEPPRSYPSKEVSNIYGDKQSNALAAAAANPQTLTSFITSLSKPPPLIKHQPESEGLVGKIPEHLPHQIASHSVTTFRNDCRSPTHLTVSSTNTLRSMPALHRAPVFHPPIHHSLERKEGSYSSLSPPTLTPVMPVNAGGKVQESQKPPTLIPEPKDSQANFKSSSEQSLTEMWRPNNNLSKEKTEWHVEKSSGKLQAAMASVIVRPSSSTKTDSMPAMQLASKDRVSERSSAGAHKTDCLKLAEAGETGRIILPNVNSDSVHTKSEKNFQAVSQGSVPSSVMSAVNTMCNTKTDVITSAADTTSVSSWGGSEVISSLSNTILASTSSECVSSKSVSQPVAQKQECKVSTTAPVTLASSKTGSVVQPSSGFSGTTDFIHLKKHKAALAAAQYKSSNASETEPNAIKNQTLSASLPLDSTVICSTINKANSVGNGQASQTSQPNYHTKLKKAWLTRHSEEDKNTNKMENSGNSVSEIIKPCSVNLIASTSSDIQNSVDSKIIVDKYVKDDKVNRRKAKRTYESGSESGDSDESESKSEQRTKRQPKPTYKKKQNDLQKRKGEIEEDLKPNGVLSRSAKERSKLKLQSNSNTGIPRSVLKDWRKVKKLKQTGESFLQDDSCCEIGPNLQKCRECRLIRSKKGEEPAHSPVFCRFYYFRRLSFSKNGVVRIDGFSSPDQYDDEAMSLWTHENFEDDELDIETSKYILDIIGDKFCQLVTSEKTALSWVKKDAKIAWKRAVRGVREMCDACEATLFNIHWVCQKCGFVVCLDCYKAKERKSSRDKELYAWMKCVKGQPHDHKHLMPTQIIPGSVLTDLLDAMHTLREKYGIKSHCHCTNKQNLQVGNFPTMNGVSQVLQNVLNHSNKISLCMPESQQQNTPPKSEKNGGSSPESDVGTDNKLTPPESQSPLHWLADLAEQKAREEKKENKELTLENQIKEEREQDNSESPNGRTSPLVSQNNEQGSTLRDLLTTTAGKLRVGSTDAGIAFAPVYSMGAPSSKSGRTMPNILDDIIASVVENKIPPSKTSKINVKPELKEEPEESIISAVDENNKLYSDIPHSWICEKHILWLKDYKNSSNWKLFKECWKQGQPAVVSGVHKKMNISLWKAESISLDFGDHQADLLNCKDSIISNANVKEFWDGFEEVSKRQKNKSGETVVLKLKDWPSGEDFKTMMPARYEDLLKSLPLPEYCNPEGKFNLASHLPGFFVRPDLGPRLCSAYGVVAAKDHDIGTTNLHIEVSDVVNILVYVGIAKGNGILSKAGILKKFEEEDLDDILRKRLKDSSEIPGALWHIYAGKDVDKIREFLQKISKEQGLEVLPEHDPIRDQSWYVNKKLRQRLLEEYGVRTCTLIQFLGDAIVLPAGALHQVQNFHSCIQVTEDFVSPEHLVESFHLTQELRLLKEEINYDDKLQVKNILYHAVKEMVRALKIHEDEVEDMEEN
UniProt Q06136: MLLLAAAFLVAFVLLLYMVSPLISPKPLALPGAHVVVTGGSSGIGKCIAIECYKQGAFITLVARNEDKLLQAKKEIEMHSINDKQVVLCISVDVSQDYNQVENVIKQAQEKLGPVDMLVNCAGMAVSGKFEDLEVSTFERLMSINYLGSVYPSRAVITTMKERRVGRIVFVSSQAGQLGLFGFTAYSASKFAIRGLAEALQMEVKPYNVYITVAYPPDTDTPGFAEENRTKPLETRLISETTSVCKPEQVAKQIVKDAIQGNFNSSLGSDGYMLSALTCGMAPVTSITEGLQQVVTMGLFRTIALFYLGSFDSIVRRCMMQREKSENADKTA
UniProt O00505, whole entry, looked up: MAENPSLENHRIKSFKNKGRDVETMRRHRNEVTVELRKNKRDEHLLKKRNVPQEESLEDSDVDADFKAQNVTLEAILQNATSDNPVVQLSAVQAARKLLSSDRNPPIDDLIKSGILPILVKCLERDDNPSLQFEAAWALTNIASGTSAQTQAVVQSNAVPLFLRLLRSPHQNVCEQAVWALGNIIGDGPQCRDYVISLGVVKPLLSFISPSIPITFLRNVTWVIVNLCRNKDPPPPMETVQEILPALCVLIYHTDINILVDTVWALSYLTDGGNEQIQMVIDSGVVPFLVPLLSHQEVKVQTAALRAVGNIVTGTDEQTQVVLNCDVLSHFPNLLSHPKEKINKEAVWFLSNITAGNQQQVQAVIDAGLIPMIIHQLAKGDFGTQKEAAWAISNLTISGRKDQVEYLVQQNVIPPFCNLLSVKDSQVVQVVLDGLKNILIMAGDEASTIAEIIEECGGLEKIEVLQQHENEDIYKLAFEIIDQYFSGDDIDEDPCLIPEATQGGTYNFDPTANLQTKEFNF
UniProt O00139: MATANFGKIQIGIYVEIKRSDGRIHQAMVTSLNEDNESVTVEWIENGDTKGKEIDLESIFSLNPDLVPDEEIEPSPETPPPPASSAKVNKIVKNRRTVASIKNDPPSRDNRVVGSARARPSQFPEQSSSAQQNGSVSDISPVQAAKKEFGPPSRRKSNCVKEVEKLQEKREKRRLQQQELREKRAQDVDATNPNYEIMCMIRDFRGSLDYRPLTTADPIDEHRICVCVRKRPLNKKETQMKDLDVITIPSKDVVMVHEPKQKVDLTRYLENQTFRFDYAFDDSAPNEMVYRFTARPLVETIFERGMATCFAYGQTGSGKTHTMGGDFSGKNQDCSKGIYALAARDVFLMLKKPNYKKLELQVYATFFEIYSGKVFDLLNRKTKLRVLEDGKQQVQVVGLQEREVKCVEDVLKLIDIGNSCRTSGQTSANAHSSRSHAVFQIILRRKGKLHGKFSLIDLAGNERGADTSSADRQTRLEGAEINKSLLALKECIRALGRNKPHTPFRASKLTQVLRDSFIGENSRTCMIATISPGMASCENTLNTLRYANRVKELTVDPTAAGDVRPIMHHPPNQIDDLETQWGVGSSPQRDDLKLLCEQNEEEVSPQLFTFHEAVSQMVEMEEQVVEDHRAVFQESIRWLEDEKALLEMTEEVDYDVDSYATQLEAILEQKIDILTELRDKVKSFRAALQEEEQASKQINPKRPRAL
UniProt Q9H3F6: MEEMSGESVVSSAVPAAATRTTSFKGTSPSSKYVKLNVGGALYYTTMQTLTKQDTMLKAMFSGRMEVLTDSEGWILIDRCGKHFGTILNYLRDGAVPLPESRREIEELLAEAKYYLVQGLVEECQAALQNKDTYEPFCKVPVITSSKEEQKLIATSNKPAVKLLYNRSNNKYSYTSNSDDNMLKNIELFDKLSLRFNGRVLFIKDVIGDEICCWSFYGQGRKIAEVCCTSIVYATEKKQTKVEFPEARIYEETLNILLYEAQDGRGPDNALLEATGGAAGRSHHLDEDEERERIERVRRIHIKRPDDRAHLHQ
UniProt Q7L273: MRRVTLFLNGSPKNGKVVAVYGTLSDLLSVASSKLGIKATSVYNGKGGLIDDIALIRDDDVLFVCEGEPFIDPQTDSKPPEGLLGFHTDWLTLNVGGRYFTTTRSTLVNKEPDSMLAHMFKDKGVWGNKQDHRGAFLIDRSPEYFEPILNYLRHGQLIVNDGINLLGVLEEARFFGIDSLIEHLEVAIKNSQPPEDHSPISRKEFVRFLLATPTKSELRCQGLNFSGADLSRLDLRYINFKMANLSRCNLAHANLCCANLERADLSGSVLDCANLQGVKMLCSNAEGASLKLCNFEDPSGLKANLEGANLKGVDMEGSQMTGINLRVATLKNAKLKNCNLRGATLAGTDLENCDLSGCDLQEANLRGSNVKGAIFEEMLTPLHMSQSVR
UniProt Q14681: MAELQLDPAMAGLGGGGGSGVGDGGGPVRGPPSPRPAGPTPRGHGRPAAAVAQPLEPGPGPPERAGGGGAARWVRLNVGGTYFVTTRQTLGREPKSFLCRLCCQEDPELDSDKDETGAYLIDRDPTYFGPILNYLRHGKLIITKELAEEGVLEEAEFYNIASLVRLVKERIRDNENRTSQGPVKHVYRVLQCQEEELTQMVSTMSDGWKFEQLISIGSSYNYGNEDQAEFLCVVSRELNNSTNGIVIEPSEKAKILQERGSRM
UniProt Q9Y597: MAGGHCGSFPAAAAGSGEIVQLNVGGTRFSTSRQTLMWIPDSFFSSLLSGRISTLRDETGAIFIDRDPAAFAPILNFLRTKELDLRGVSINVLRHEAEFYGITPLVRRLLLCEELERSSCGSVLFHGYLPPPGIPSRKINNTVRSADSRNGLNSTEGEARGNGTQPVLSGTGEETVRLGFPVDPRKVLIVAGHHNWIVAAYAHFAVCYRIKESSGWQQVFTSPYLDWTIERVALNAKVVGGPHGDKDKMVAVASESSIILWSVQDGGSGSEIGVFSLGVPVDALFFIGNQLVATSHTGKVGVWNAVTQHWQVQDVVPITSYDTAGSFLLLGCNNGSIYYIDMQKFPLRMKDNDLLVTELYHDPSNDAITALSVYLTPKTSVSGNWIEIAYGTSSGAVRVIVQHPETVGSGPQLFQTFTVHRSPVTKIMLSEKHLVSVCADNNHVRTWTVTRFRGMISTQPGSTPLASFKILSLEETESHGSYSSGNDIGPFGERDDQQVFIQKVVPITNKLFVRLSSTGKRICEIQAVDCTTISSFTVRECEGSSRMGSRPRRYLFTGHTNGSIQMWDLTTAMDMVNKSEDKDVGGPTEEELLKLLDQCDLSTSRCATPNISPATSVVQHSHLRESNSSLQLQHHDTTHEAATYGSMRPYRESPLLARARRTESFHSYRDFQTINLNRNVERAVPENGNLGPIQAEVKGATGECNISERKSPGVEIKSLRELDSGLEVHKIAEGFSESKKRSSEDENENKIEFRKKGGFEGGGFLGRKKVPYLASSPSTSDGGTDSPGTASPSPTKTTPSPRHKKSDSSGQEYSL
UniProt Q9UK76: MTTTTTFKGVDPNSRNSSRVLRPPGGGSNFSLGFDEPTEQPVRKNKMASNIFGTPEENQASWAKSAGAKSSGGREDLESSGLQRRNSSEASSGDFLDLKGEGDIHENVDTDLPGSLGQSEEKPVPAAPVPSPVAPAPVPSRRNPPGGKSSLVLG

[1] = compound: C/C(=N\NC(=O)C1=CC(=CC=C1)S(=O)(=O)N2CCOCC2)/C3=C(C=CC(=C3)Cl)O
Method in brief: as §1

[2] = compound: C1=CC(=C(C=C1Cl)C2=NC3=NC=CN=C3C(=N2)NC4=CC=NC=C4)F
Method in brief: as §1

[3] = compound: C1=CC(=CC=C1C2=NC3=C(N2)C=C(C=C3)C(=O)N)OC4=CC=C(C=C4)Cl
Method in brief: as §1

[4] = compound: C1=CC2=C(C=CC(=C2)/C=C\3/C(=O)NC(=NCC4=CC=CS4)S3)N=C1
Method in brief: as §1

[5] = compound: C1=CC2=NC=CN=C2C=C1/C=C/3\C(=O)NC(=O)S3
Method in brief: as §1

[6] = compound: C1=CC=C(C=C1)C2=NC(=C(N2)C3=CC=NC=C3)C4=CC(=C(C=C4)Cl)O
Method in brief: as §1

[7] = compound: C1=CC=C2C(=C1)C3=NNC4=CC=CC(=C43)C2=O
Method in brief: as §1

[8] = compound: C1CCN(C1)C(=O)NC2=CC=CC(=C2)NC3=NC=C(C(=N3)NCCC4=CN=CN4)Br
Method in brief: as §1

[9] = compound: C1CN(CCC1(CC2=CC=C(C=C2)Cl)N)C3=NC=NC4=C3C=CN4
Method in brief: as §1

Measured: log2 fold change

KLC4 isoform 3 (UniProt Q9NSK0)
inactive: erlotinib 0.086 | [1] 0.077 | [2] 0.102 | [3] 0.03 | [4] -0.029 | [5] 0.08 | [6] 0.061 | [7] 0.005 | [8] -0.005 | [9] -0.064

JMJD1C (UniProt Q15652)
inactive: erlotinib 0.018 | [1] -0.013 | [2] 0.1 | [3] 0.004 | [4] 0.08 | [5] 0.055 | [6] -0.055 | [7] -0.065 | [8] -0.035 | [9] 0.025

KLHDC3 (UniProt Q9BQ90)
inactive: erlotinib -0.011 | [1] 0.069 | [2] 0.007 | [3] 0.08 | [4] 0.112 | [5] 0.034 | [6] -0.092 | [7] -0.052 | [8] 0.064 | [9] 0.027

KLHDC4 (UniProt Q8TBB5)
inactive: erlotinib -0.066 | [1] -0.075 | [2] -0.174 | [3] -0.013 | [4] 0.077 | [5] -0.123 | [6] -0.081 | [7] 0.07 | [8] -0.113 | [9] 0.119

KDSR (UniProt Q06136)
inactive: erlotinib -0.04 | [1] 0.062 | [2] 0.075 | [3] 0.003 | [4] -0.014 | [5] 0.053 | [6] -0.011 | [7] -0.027 | [8] -0.01 | [9] 0.099

KPNA3 (UniProt O00505)
inactive: erlotinib -0.038 | [1] 0.048 | [2] 0.056 | [3] 0.076 | [4] 0.047 | [5] 0.032 | [6] -0.005 | [7] -0.007 | [8] 0.011 | [9] 0.011

KIF2A isoform 4 (UniProt O00139)
inactive: erlotinib -0.003 | [1] 0.007 | [2] -0.201 | [3] -0.006 | [4] -0.013 | [5] 0.014 | [6] -0.021 | [7] -0.002 | [8] -0.06 | [9] -0.153

IWS1 (UniProt Q96ST2)
inactive: erlotinib 0.029 | [1] 0.029 | [2] 0.091 | [3] 0 | [4] -0.033 | [5] 0.022 | [6] -0.013 | [7] -0.077 | [8] -0.067 | [9] -0.033

KIFBP (UniProt Q96EK5)
inactive: erlotinib -0.034 | [1] 0.147 | [2] 0 | [3] 0.017 | [4] 0.074 | [5] -0.015 | [6] -0.008 | [7] 0.03 | [8] 0.014 | [9] -0.058

KCTD10 (UniProt Q9H3F6)
inactive: erlotinib -0.041 | [1] 0.159 | [2] -0.051 | [3] 0.014 | [4] -0.021 | [5] 0.049 | [6] -0.171 | [7] 0.045 | [8] -0.027 | [9] -0.055

KIF3B (UniProt O15066)
inactive: erlotinib -0.015 | [1] 0.016 | [2] -0.015 | [3] -0.108 | [4] -0.02 | [5] 0.004 | [6] -0.029 | [7] 0.077 | [8] -0.101 | [9] -0.039

KCMF1 (UniProt Q9P0J7)
inactive: erlotinib -0.001 | [1] -0.112 | [2] 0.098 | [3] -0.014 | [4] -0.056 | [5] 0.02 | [6] 0.032 | [7] 0 | [8] -0.013 | [9] -0.174

KCTD9 (UniProt Q7L273)
inactive: erlotinib -0.025 | [1] 0.004 | [2] -0.014 | [3] 0.013 | [4] 0.039 | [5] -0.022 | [6] -0.031 | [7] -0.009 | [8] -0.077 | [9] 0.041

KCT2 (UniProt Q8NC54)
inactive: erlotinib 0.069 | [1] 0.019 | [2] 0.064 | [3] 0.061 | [4] -0.005 | [5] 0.075 | [6] 0.096 | [7] -0.005 | [8] -0.028 | [9] 0.056

KRTCAP2 isoform 2 (UniProt Q8N6L1)
inactive: erlotinib 0.02 | [1] 0.1 | [2] 0.069 | [3] 0.012 | [4] -0.073 | [5] 0.057 | [6] 0.159 | [7] 0.048 | [8] 0.007 | [9] 0.16

KIF11 (UniProt P52732)
inactive: erlotinib 0.042 | [1] 0.032 | [2] -0.106 | [3] -0.058 | [4] 0.038 | [5] 0.012 | [6] -0.168 | [7] 0.011 | [8] -0.017 | [9] -0.158

2 entries picked at random from the list so far:
KRTCAP2 isoform 2 (UniProt Q8N6L1)
inactive: erlotinib 0.02 | [1] 0.1 | [2] 0.069 | [3] 0.012 | [4] -0.073 | [5] 0.057 | [6] 0.159 | [7] 0.048 | [8] 0.007 | [9] 0.16

KCT2 (UniProt Q8NC54)
inactive: erlotinib 0.069 | [1] 0.019 | [2] 0.064 | [3] 0.061 | [4] -0.005 | [5] 0.075 | [6] 0.096 | [7] -0.005 | [8] -0.028 | [9] 0.056

Next part

KCNAB2 (UniProt Q13303)
inactive: erlotinib -0.023 | [1] -0.049 | [2] -0.012 | [3] 0.089 | [4] 0.017 | [5] 0.133 | [6] -0.073 | [7] -0.004 | [8] 0.013 | [9] 0.053

KPNA6 (UniProt O60684)
inactive: erlotinib 0.077 | [1] 0.108 | [2] -0.068 | [3] -0.075 | [4] 0.013 | [5] 0.059 | [6] 0.015 | [7] -0.119 | [8] 0.017 | [9] -0.07

KLHL18 (UniProt O94889)
inactive: erlotinib -0.011 | [1] 0 | [2] 0.12 | [3] 0.022 | [4] 0.031 | [5] -0.02 | [6] -0.042 | [7] -0.085 | [8] -0.042 | [9] -0.026

KIF23 (UniProt Q02241)
inactive: erlotinib -0.103 | [1] 0.033 | [2] -0.113 | [3] 0.162 | [4] -0.066 | [5] -0.045 | [6] -0.035 | [7] 0.061 | [8] -0.079 | [9] -0.05

JAG2 (UniProt Q9Y219)
inactive: erlotinib 0.016 | [1] -0.019 | [2] -0.019 | [3] 0.04 | [4] -0.041 | [5] -0.112 | [6] -0.159 | [7] -0.233 | [8] -0.081 | [9] 0.081

KCTD2 (UniProt Q14681)
inactive: erlotinib 0.177 | [1] -0.154 | [2] -0.125 | [3] -0.126 | [4] 0.158 | [5] -0.062 | [6] 0.055 | [7] -0.106 | [8] 0.26 | [9] -0.005

KCTD3 (UniProt Q9Y597)
inactive: erlotinib 0.016 | [1] -0.082 | [2] -0.029 | [3] 0.045 | [4] 0.102 | [5] 0.001 | [6] -0.182 | [7] -0.037 | [8] 0.032 | [9] 0.028

JPT1 (UniProt Q9UK76)
inactive: erlotinib 0.015 | [1] -0.031 | [2] 0.047 | [3] 0.014 | [4] -0.063 | [5] 0.005 | [6] -0.023 | [7] 0.055 | [8] -0.039 | [9] 0.048

KEAP1 (UniProt Q14145)
inactive: erlotinib -0.015 | [1] -0.031 | [2] 0.025 | [3] -0.021 | [4] 0.025 | [5] 0.159 | [6] -0.098 | [7] 0.023 | [8] -0.045 | [9] -0.034

KIF5B (UniProt P33176)
inactive: erlotinib -0.022 | [1] 0.041 | [2] 0.08 | [3] -0.008 | [4] 0.01 | [5] 0.031 | [6] 0.066 | [7] 0.022 | [8] 0.004 | [9] -0.031

KHK isoform 2 (UniProt P50053)
inactive: erlotinib 0.056 | [1] -0.031 | [2] 0.015 | [3] -0.021 | [4] 0.022 | [5] 0.019 | [6] 0.013 | [7] -0.045 | [8] -0.024 | [9] 0.071

KPNA4 (UniProt O00629)
inactive: erlotinib 0.016 | [1] 0.023 | [2] 0.037 | [3] 0.023 | [4] 0.005 | [5] 0.03 | [6] 0.027 | [7] -0.024 | [8] 0.003 | [9] 0.003

KMT2C isoform 3 (UniProt Q8NEZ4)
inactive: erlotinib 0.038 | [1] -0.032 | [2] 0.006 | [3] 0.012 | [4] 0.078 | [5] 0.021 | [6] -0.194 | [7] -0.056 | [8] 0.003 | [9] 0.018

From the supplement of paper PMC10849652
